PubChem BioAssay AID686938, Drosophila RNAi Screening Center | 2013
The screen tested about 23,000 reagents; below is an unselected part of those with a known target gene and a result. Of all reagents, 75 (0.33%) are marked active. 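Raw plate signals without normalisation; calls rest on plate z-scores that were not deposited; ratio present for only 364 wells.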 Reagents against one gene are numbered here. Reagent sequences are not shown. The record does not give: the dose of the treatment.

- Screen: 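Fly genes required for calcium entry once internal stores are emptied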 (primary screen)
- Cell system: Drosophila S2R+ cells
- Reagent: long dsRNA against Drosophila genes, about 0.25 µg dsRNA per well, roughly 10,000 cells
- Duration: 5 days of knock-down before the calcium assay
- Challenge: thapsigargin (SERCA pump blocker) to empty calcium stores; entry signal taken 4 min after adding it
- Detection: 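Duplicate raw fluo-4 intensities per well from a plate reader, at rest and four minutes after thapsigargin emptied calcium stores; entry-to-rest ratio filled for only some wells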
- Reading the numbers: calcium entry signal: higher = stronger calcium signal after store depletion; resting calcium signal: higher = higher resting calcium signal
- Active means: 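Hit if the duplicate-averaged plate z-score for entry over resting signal is under −3; wells with weak total dye signal (Fmax z < −2) or more than 5 off-targets removed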
- Calls: active = strongly reduced calcium entry; inactive = no strong reduction

Target gene | reagent no. | calcium entry signal, replicate 1 (fluorescence units) | calcium entry signal, replicate 2 (fluorescence units) | resting calcium signal, replicate 1 (fluorescence units) | resting calcium signal, replicate 2 (fluorescence units) | call
Arpc2 | 1 | 3.16e7 | – | 1.61e7 | – | inactive
Ublcp1 | 1 | 4.43e7 | 3.88e7 | 2.34e7 | 1.82e7 | inactive
rnh1 | 1 | 3.10e7 | 3.40e7 | 1.50e7 | 1.54e7 | inactive
pug | 1 | 3.67e7 | 4.09e7 | 1.83e7 | 2.06e7 | inactive
CG12672 | 1 | 3.22e7 | 4.28e7 | 1.61e7 | 1.79e7 | inactive
CG7432 | 1 | 4.69e7 | 4.51e7 | 5.18e7 | 1.82e7 | inactive
Edem2 | 1 | 4.59e7 | 3.44e7 | 2.04e7 | 1.49e7 | inactive
CG8701 | 1 | 4.05e7 | 3.76e7 | 1.71e7 | 1.79e7 | inactive
Cyp6a16Psi (retired record) | 1 | 2.39e7 | 2.38e7 | 1.27e7 | 1.20e7 | inactive
CG10029 | 1 | 4.15e7 | 4.78e7 | 1.72e7 | 2.04e7 | inactive
CG32365 | 1 | 3.52e7 | 4.42e7 | 1.55e7 | 1.94e7 | inactive
CG32365 | 2 | 2.05e7 | 2.59e7 | 1.36e7 | 1.32e7 | inactive
CG32365 | 3 | 2.48e7 | 3.14e7 | 1.40e7 | 1.74e7 | inactive

A portion of the results above, as a working copy:
Target gene | reagent no. | calcium entry signal, replicate 1 (fluorescence units) | calcium entry signal, replicate 2 (fluorescence units) | resting calcium signal, replicate 1 (fluorescence units) | resting calcium signal, replicate 2 (fluorescence units) | call
CG10029 | 1 | 4.15e7 | 4.78e7 | 1.72e7 | 2.04e7 | inactive
CG32365 | 1 | 3.52e7 | 4.42e7 | 1.55e7 | 1.94e7 | inactive

The listing continues:
Target gene | reagent no. | calcium entry signal, replicate 1 (fluorescence units) | calcium entry signal, replicate 2 (fluorescence units) | resting calcium signal, replicate 1 (fluorescence units) | resting calcium signal, replicate 2 (fluorescence units) | call
CAH8 | 1 | 3.66e7 | 4.21e7 | 5.54e7 | 2.12e7 | inactive
CG12885 | 1 | 1.95e7 | 3.68e7 | 1.11e7 | 1.63e7 | inactive
Taf9 | 1 | 2.49e7 | 2.64e7 | 1.26e7 | 1.34e7 | inactive
CG31538 | 1 | 2.90e7 | 6.32e7 | 1.52e7 | 2.85e7 | inactive
SRPK | 1 | 2.52e7 | 1.87e7 | 1.15e7 | 1.01e7 | inactive
Hmgs | 1 | 5.35e7 | 4.45e7 | 2.21e7 | 2.12e7 | inactive
CG1927 | 1 | 4.20e7 | 3.65e7 | 1.88e7 | 1.89e7 | inactive
GluRIB | 1 | 1.77e7 | 2.13e7 | 9.67e6 | 9.95e6 | inactive
GluRIB | 2 | 1.85e7 | 2.64e7 | 9.89e6 | 1.19e7 | inactive
CG13813 | 1 | 1.77e7 | 3.43e7 | 1.01e7 | 1.58e7 | inactive
CG3386 | 1 | 3.48e7 | 4.15e7 | 1.76e7 | 1.81e7 | inactive
